Test: Endogenous metabolite concentrations in BAL and epithelial lining fluid of mice (LC-MS, GC-MS)
Format: in vivo, mouse
Conditions: for endogenous concentration in BAL, PAO1-infected mice: 12 hours post infection, ITA by LC-MS, α-KG by GC-MS (detection threshold)

Row | Structure (SMILES) | endogenous concentration in BAL, PAO1-infected mice [nM] | endogenous concentration in BAL, uninfected mice (LC-MS) [nM] | concentration in undiluted ELF, PAO1-infected mice, range (calculated from BAL using urea as marker of dilution) [µM] | concentration in undiluted epithelial lining fluid (ELF), PAO1-infected mice (calculated from BAL using urea as marker of dilution, mean) [µM]
1 | C=C(CC(=O)O)C(=O)O [ITA, itaconate] | 122 to 689 | 0 to 0.067 | 18 to 215 | 109.5 ± 69.2
2 | O=C(O)CCC(=O)C(=O)O [α-KG, α-ketoglutaric acid, reference compound] | < 125 |  |  | 

From publication PMC10014103, “The immunometabolite itaconate stimulates OXGR1 to promote mucociliary clearance during the pulmonary innate immune response” (The Journal of Clinical Investigation, 2023)
